# Results as given in publication doi:10.1101/2020.03.16.994293.
# Amino acid sequences for entries named in this document (tags omitted).
# UniProt P46938: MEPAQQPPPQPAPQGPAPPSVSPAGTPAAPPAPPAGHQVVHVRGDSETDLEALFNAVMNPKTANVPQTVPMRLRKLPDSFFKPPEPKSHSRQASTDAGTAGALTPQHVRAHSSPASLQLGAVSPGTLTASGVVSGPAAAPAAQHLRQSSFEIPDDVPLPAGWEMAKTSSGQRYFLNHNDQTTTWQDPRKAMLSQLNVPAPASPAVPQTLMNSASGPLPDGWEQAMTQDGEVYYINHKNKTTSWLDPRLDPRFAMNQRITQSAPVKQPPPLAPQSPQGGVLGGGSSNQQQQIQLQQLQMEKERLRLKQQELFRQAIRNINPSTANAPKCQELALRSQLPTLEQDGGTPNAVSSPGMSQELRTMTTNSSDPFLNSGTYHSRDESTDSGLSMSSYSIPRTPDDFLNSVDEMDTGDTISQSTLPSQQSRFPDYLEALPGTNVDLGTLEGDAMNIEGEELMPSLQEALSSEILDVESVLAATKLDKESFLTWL
# Results are given in words; binding and its absence hold for the method and conditions named. Binding seen in cells or lysates may run through a third protein. Some results given as binding are weak or reduced against the parent protein; the word gives no strength.
# Target: T1, VE-cadherin (mouse (endogenous in mouse brain endothelial cells)) (UniProt P55284)
# T1 sequence: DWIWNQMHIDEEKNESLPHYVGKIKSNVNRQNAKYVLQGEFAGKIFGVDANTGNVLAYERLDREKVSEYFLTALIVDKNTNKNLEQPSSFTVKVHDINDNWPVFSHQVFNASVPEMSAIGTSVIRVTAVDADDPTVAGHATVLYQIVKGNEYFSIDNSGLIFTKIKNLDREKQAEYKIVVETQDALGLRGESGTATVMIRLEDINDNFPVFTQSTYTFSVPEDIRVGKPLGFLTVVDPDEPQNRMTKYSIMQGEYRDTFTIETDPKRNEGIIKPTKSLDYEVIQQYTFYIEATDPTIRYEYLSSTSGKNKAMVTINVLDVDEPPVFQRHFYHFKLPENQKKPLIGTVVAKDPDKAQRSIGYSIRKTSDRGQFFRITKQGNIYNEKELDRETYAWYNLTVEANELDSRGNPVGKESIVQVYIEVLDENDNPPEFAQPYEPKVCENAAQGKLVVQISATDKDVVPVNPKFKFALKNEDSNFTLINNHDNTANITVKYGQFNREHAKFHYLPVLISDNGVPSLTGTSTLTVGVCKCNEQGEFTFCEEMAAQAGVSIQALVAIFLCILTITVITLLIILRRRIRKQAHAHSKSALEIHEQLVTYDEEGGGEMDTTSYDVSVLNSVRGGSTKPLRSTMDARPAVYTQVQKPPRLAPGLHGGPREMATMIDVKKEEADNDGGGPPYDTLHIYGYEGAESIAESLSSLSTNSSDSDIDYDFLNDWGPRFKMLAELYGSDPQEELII
# Experiment: co-IP
substance,measurement,value
yes-associated protein (YAP) (from UniProt P46938 1-488),binding,binds
